Measurements: article PMC4740400
Results are given in words; binding and its absence hold for the method and conditions named. For some assays here: In cells and extracts the contact can be indirect. Some results given as binding are weak or reduced against the parent protein; the word gives no strength.

By UniProt entry, the sequences of proteins in these tests, tags left out.
UniProt Q13547: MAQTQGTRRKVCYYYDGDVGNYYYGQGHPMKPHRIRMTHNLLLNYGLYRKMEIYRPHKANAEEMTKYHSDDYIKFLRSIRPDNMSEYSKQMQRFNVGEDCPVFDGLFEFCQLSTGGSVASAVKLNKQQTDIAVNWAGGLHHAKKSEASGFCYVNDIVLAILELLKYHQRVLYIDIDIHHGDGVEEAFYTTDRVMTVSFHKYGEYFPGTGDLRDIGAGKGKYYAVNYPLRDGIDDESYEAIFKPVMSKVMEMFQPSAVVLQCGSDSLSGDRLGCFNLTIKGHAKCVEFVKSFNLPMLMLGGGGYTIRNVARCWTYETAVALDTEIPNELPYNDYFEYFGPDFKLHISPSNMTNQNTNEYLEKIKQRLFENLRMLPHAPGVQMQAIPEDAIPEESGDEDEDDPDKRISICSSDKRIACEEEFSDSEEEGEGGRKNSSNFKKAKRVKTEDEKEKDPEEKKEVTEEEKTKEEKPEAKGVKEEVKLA
UniProt Q00987: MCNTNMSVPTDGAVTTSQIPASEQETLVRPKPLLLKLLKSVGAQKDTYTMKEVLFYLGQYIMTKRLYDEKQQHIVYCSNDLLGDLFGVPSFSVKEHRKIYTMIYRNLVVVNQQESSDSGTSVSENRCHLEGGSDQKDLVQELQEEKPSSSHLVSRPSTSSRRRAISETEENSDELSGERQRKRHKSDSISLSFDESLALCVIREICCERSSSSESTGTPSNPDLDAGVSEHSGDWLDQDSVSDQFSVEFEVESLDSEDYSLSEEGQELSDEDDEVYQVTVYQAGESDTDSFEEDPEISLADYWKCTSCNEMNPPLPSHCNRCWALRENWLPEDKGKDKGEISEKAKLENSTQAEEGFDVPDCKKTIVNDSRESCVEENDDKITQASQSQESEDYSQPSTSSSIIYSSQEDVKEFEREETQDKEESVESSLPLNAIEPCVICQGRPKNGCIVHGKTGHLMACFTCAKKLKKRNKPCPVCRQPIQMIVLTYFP

Tests used:
[1] = target: Flag-HDAC1 (histone deacetylase 1) (UniProt Q13547); experiment: co-IP; 293T cells transfected with Flag-HDAC1 and HA-MDM2; lysis buffer 50 mM Tris pH 8.0, 150 mM NaCl, 1 mM EDTA, 1% NP-40, 1 mM DTT; immunoprecipitation overnight at 4 °C, western blot; in Fig. 6c cells were treated with RG 7112 (2.5 μM) or vehicle for 24 h
GST-HDAC1 = GST-HDAC1 (UniProt Q13547); experiment: pull-down; GST or GST-HDAC1 immobilized on a Sepharose 4B column, His-MDM2 applied; bound MDM2 detected by western blot with anti-MDM2 antibody; cell-free; both purified

binding [1] | binding (GST-HDAC1) | Substance
binds | – | HA-MDM2 (pcDNA6-3xHA-MDM2-Myc) (from UniProt Q00987 1-491)
– | binds | His-MDM2 (from UniProt Q00987 1-491)
